# Source: the supplement of paper PMC8728848
# Some of the results follow.
# Key:
# Assay in all cases: glycan array binding signal (z-score within array); higher = stronger binding
# Conditions in all cases: glycan notation: IUPAC condensed, linker removed
# [1] = target: Fuc(a1-2)Gal
# In short: (§1)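 Arrays were curated from the Consortium for Functional Glycomics database, 3228 in total, and kept only where the protein sequence was available. Binding is expressed as a within-array Z-score. This score was averaged across arrays of the same protein sequence at different concentrations or buffers and across linkers, and negative values can be read as non-binding.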
# [2] = target: Fuc(a1-2)Gal(b1-3)GalNAc
# In short: as §1
# [3] = target: Fuc(a1-2)Gal(b1-3)GalNAc(b1-3)Gal
# In short: as §1
# [4] = target: Fuc(a1-2)Gal(b1-3)GalNAc(b1-3)Gal(a1-4)Gal(b1-4)Glc
# In short: as §1
# [5] = target: Fuc(a1-2)Gal(b1-3)GalNAc(b1-4)[Neu5Ac(a2-3)]Gal(b1-4)Glc
# In short: as §1
# [6] = target: Fuc(a1-2)Gal(b1-3)GlcNAc
# In short: as §1
# [7] = target: Fuc(a1-2)Gal(b1-3)GlcNAc(b1-3)Gal(b1-4)Glc
# In short: as §1
# [8] = target: Fuc(a1-2)Gal(b1-3)[Fuc(a1-4)]GlcNAc
# In short: as §1
# [9] = target: Fuc(a1-2)Gal(b1-4)Glc
# In short: as §1
# [10] = target: Fuc(a1-2)Gal(b1-4)Glc6S
# In short: as §1
# [11] = target: Fuc(a1-2)Gal(b1-4)GlcNAc
# In short: as §1
# [12] = target: Fuc(a1-2)Gal(b1-4)GlcNAc(b1-3)Gal(b1-4)GlcNAc
# In short: as §1
# [13] = target: Fuc(a1-2)Gal(b1-4)GlcNAc(b1-3)Gal(b1-4)GlcNAc(b1-3)Gal(b1-4)GlcNAc
# In short: as §1
# [14] = target: Fuc(a1-2)Gal(b1-4)GlcNAc6S
# In short: as §1
# [15] = target: Fuc(a1-2)Gal(b1-4)[Fuc(a1-3)]GlcNAc
# In short: as §1
# [16] = target: Fuc(a1-2)Gal(b1-4)[Fuc(a1-3)]GlcNAc(b1-3)Gal(b1-4)[Fuc(a1-3)]GlcNAc
# In short: as §1
# [17] = target: Fuc(a1-2)Gal(b1-4)[Fuc(a1-3)]GlcNAc(b1-3)Gal(b1-4)[Fuc(a1-3)]GlcNAc(b1-3)Gal(b1-4)[Fuc(a1-3)]GlcNAc
# In short: as §1
# [18] = target: Fuc(a1-2)Gal6S(b1-4)Glc
# In short: as §1
# [19] = target: Fuc(a1-2)Gal6S(b1-4)Glc6S
# In short: as §1
# [20] = target: Fuc(a1-2)Gal6S(b1-4)GlcNAc
# In short: as §1
# [21] = target: Fuc(a1-2)[Gal(a1-3)]Gal
# In short: as §1
# [22] = target: Fuc(a1-2)[Gal(a1-3)]Gal(b1-3)GlcNAc
# In short: as §1
# [23] = target: Fuc(a1-2)[Gal(a1-3)]Gal(b1-4)Glc
# In short: as §1
# [24] = target: Fuc(a1-2)[Gal(a1-3)]Gal(b1-4)GlcNAc
# In short: as §1
# [25] = target: Fuc(a1-2)[Gal(a1-3)]Gal(b1-4)[Fuc(a1-3)]GlcNAc
# In short: as §1
# [26] = target: Fuc(a1-2)[Gal(a1-4)]Gal(b1-4)GlcNAc
# In short: as §1
# [27] = target: Fuc(a1-2)[GalNAc(a1-3)]Gal
# In short: as §1
# [28] = target: Fuc(a1-2)[GalNAc(a1-3)]Gal(b1-3)GlcNAc
# In short: as §1
# [29] = target: Fuc(a1-2)[GalNAc(a1-3)]Gal(b1-4)Glc
# In short: as §1
# [30] = target: Fuc(a1-2)[GalNAc(a1-3)]Gal(b1-4)GlcNAc
# In short: as §1
# [31] = target: Fuc(a1-2)[GalNAc(a1-3)]Gal(b1-4)[Fuc(a1-3)]GlcNAc
# In short: as §1
# [32] = target: Fuc(a1-2)[GalNAc(a1-4)]Gal(b1-4)GlcNAc
# In short: as §1
# [33] = target: Fuc(a1-2)[GalNAc(b1-3)]Gal
# In short: as §1
# [34] = target: Fuc(a1-3)GlcNAc
# In short: as §1
# [35] = target: Fuc(a1-3)[Gal(b1-4)]Glc6S
# In short: as §1
# [36] = target: Fuc(a1-3)[Gal(b1-4)]GlcNAc
# In short: as §1
# [37] = target: Fuc(a1-3)[Gal(b1-4)]GlcNAc(b1-3)Gal(b1-3)[Fuc(a1-4)]GlcNAc
# In short: as §1
# [38] = target: Fuc(a1-3)[Gal(b1-4)]GlcNAc(b1-4)Gal(b1-4)[Fuc(a1-3)]GlcNAc
# In short: as §1
# [39] = target: Fuc(a1-3)[Gal(b1-4)]GlcNAc(b1-4)Gal(b1-4)[Fuc(a1-3)]GlcNAc(b1-4)Gal(b1-4)[Fuc(a1-3)]GlcNAc
# In short: as §1
# [40] = target: Fuc(a1-3)[Gal(b1-4)]GlcNAc6S
# In short: as §1
# [41] = target: Fuc(a1-3)[Gal3S(b1-4)]Glc6S
# In short: as §1
# [42] = target: Fuc(a1-3)[Gal3S(b1-4)]GlcNAc
# In short: as §1
# [43] = target: Fuc(a1-3)[Gal3S(b1-4)]GlcNAc6S
# In short: as §1
# [44] = target: Fuc(a1-3)[GalNAc(b1-4)]GlcNAc
# In short: as §1
# [45] = target: Fuc(a1-4)GlcNAc
# In short: as §1
binder,measurement,setting,value
Fap1 (Streptococcus parasanguis) (protein) KATSKGTEEKQDSVRENLDKMISEAEVLNDMAARKLITLDAEQQLELMKSLVATQSQLEATKNLIGDPNATVADLQIAYTTLGNNTQALGNELIKLNPNGQIYAVLNNTEASRAATLRSTTTGTKTTFTISDFSNGGTQYYWAGGNANNLKNPISSISAVYDSATGKISWTVEYDPTTILKSPALKTLKTYTGIYIDTSSDSKLSTPTNVLIDGAATNPVTNFYGNGSKGIEYVSKGTTKGVTKHTITFDTAFSGRANDLADLEIKMLAATTLSDPHFYEDGSKGNYGRYNGQTAPYVIANDSGTAIGGYQVSGVNADSIPSDTT,glycan array binding signal (z-score),[1],1.54
same,glycan array binding signal (z-score),[2],0.394
same,glycan array binding signal (z-score),[3],-0.07
same,glycan array binding signal (z-score),[4],0.162
same,glycan array binding signal (z-score),[5],-0.038
same,glycan array binding signal (z-score),[6],0.203
same,glycan array binding signal (z-score),[7],-0.516
same,glycan array binding signal (z-score),[8],0.236
same,glycan array binding signal (z-score),[9],0.753
same,glycan array binding signal (z-score),[10],-0.286
same,glycan array binding signal (z-score),[11],0.336
same,glycan array binding signal (z-score),[12],-0.39
same,glycan array binding signal (z-score),[13],-0.254
same,glycan array binding signal (z-score),[14],-0.989
same,glycan array binding signal (z-score),[15],0.342
same,glycan array binding signal (z-score),[16],0.38
same,glycan array binding signal (z-score),[17],0.221
same,glycan array binding signal (z-score),[18],-0.648
same,glycan array binding signal (z-score),[19],0.31
same,glycan array binding signal (z-score),[20],-0.797
same,glycan array binding signal (z-score),[21],0.463
same,glycan array binding signal (z-score),[22],0.099
same,glycan array binding signal (z-score),[23],0.408
same,glycan array binding signal (z-score),[24],-0.08
same,glycan array binding signal (z-score),[25],0.019
same,glycan array binding signal (z-score),[26],0.102
same,glycan array binding signal (z-score),[27],-0.023
same,glycan array binding signal (z-score),[28],0.03
same,glycan array binding signal (z-score),[29],-0.579
same,glycan array binding signal (z-score),[30],0.226
same,glycan array binding signal (z-score),[31],-0.31
same,glycan array binding signal (z-score),[32],0.312
same,glycan array binding signal (z-score),[33],0.067
same,glycan array binding signal (z-score),[34],0.245
same,glycan array binding signal (z-score),[35],-0.255
same,glycan array binding signal (z-score),[36],0.377
same,glycan array binding signal (z-score),[37],-0.293
same,glycan array binding signal (z-score),[38],0.909
same,glycan array binding signal (z-score),[39],0.074
same,glycan array binding signal (z-score),[40],-0.313
same,glycan array binding signal (z-score),[41],0.012
same,glycan array binding signal (z-score),[42],0.175
same,glycan array binding signal (z-score),[43],2.23
same,glycan array binding signal (z-score),[44],0.097
same,glycan array binding signal (z-score),[45],0.054

# 2 records picked at random from those above, as already listed:
binder,measurement,setting,value
Fap1 (Streptococcus parasanguis) (protein) KATSKGTEEKQDSVRENLDKMISEAEVLNDMAARKLITLDAEQQLELMKSLVATQSQLEATKNLIGDPNATVADLQIAYTTLGNNTQALGNELIKLNPNGQIYAVLNNTEASRAATLRSTTTGTKTTFTISDFSNGGTQYYWAGGNANNLKNPISSISAVYDSATGKISWTVEYDPTTILKSPALKTLKTYTGIYIDTSSDSKLSTPTNVLIDGAATNPVTNFYGNGSKGIEYVSKGTTKGVTKHTITFDTAFSGRANDLADLEIKMLAATTLSDPHFYEDGSKGNYGRYNGQTAPYVIANDSGTAIGGYQVSGVNADSIPSDTT,glycan array binding signal (z-score),[12],-0.39
same,glycan array binding signal (z-score),[24],-0.08
